Experimental data taken from article doi:10.1101/2022.09.10.507405.
Positions count from the first letter of the chain named. Names and notes keep the numbering of the source. These are yes or no findings as the source states them, for the method shown. Some entries that bind do so weakly or less than the wild type.

T1: human TPR aa 1-175 (human) (UniProt P12270)
T1 sequence: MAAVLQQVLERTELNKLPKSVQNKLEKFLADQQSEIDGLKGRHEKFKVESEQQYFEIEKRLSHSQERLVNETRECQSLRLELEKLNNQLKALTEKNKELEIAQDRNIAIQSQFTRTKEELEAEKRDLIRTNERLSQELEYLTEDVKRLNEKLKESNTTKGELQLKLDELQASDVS

T2: human TPR aa 1-111 (human) (UniProt P12270)
T2 sequence: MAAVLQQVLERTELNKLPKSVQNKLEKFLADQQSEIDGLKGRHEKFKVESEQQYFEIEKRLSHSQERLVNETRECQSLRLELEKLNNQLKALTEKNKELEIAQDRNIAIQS

T3: human TPR aa 1-102 (human) (UniProt P12270)
T3 sequence: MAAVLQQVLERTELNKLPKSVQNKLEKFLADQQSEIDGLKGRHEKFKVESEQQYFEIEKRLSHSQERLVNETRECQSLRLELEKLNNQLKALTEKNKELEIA

T4: human TPR aa 275-539 (human) (UniProt P12270)
T4 sequence: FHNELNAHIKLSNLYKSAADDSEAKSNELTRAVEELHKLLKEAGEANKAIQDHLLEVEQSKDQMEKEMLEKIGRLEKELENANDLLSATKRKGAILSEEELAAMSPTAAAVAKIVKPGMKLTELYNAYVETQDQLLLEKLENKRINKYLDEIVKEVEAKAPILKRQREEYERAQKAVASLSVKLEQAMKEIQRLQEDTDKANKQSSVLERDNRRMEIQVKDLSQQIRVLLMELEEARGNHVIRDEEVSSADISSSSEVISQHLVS

T5: human TPR aa 172-651 (human) (UniProt P12270)
T5 sequence: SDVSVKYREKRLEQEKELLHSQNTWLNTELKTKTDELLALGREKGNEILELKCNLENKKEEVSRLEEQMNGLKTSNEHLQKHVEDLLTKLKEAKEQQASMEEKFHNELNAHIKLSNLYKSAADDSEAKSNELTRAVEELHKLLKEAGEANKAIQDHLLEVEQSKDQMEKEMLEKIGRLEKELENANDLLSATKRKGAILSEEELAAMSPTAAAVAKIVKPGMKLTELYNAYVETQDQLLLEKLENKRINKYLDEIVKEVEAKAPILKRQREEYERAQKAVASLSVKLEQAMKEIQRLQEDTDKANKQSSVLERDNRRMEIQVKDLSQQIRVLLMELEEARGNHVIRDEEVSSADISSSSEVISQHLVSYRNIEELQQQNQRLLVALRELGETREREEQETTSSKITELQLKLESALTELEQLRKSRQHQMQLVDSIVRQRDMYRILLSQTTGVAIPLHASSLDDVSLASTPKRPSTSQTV

T6: human TPR aa 386-539 (human) (UniProt P12270)
T6 sequence: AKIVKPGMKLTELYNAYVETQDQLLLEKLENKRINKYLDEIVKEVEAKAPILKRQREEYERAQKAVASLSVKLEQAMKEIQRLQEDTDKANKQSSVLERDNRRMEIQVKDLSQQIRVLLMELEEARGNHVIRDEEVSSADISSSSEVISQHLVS

B1: human ZC3HC1, wild type (protein, UniProt Q86WB0 1-502)
chain: MAAPCEGQAFAVGVEKNWGAVVRSPEGTPQKIRQLIDEGIAPEEGGVDAKDTSATSQSVNGSPQAEQPSLESTSKEAFFSRVETFSSLKWAGKPFELSPLVCAKYGWVTVECDMLKCSSCQAFLCASLQPAFDFDRYKQRCAELKKALCTAHEKFCFWPDSPSPDRFGMLPLDEPAILVSEFLDRFQSLCHLDLQLPSLRPEDLKTMCLTEDKISLLLHLLEDELDHRTDERKTTIKLGSDIQVHVTACILSVCGWACSSSLESMQLSLITCSQCMRKVGLWGFQQIESSMTDLDASFGLTSSPIPGLEGRPERLPLVPESPRRMMTRSQDATFSPGSEQAEKSPGPIVSRTRSWDSSSPVDRPEPEAASPTTRTRPVTRSMGTGDTPGLEVPSSPLRKAKRARLCSSSSSDTSSRSFFDPTSQHRDWCPWVNITLGKESRENGGTEPDASAPAEPGWKAVLTILLAHKQSSQPAETDSMSLSEKSRKVFRIFRQWESLCSC
B2: human ZC3HC1 C125S (protein, UniProt Q86WB0 1-502)
chain: B1 chain with C125S
B3: human ZC3HC1 C102S (protein, UniProt Q86WB0 1-502)
chain: B1 chain with C102S
B4: human ZC3HC1 W158A (protein, UniProt Q86WB0 1-502)
chain: B1 chain with W158A
B5: human ZC3HC1 C112S (protein, UniProt Q86WB0 1-502)
chain: B1 chain with C112S
B6: human ZC3HC1 C156S (protein, UniProt Q86WB0 1-502)
chain: B1 chain with C156S

Assays:
Assay in all cases: two-hybrid
[1] = molecular target: T1, human TPR aa 1-175 (human)
[2] = molecular target: T2, human TPR aa 1-111 (human)
[3] = molecular target: T3, human TPR aa 1-102 (human)
[4] = molecular target: T4, human TPR aa 275-539 (human)
[5] = molecular target: T5, human TPR aa 172-651 (human)
[6] = molecular target: T6, human TPR aa 386-539 (human)

| Binder | binding [1] | binding [2] | binding [3] | binding [4] | binding [5] | binding [6] |
| --- | --- | --- | --- | --- | --- | --- |
| B1 | binds | binds | binds | binds | binds | binds |
| B2 |  |  | binds |  |  | binds |
| B3 |  |  | binds |  |  | binds |
| B4 |  |  | binds |  |  | binds |
| B5 |  |  | binds |  |  | binds |
| B6 |  |  | no binding |  |  | no binding |
